Measured values published in article PMC8585052.

Molecular target: FLAG-tagged two NZF domains of HOIP (NZF1/2) (human)
Assay: co-IP; tagged proteins co-transfected into HEK293 cells, lysed after 48 h (50 mM Tris-HCl pH 7.5, 10 mM MgCl2, 100 mM NaCl, 0.5% Nonidet P40, 10% glycerol); immunoprecipitated overnight at 4 °C with the indicated antibody plus protein A/G agarose or anti-FLAG M2 gel; Western blot

binding: binds
B1: HA-tagged PKP2 N348 (domain or fragment, UniProt Q99959-2 1-348)
chain: MAAPGAPAEYGYIRTVLGQQILGQLDSSSLALPSEAKLKLAGSSGRGGQTVKSLRIQEQVQQTLARKGRSSVGNGNLHRTSSVPEYVYNLHLVENDFVGGRSPVPKTYDMLKAGTTATYEGRWGRGTAQYSSQKSVEERSLRHPLRRLEISPDSSPERAHYTHSDYQYSQRSQAGHTLHHQESRRAALLVPPRYARSEIVGVSRAGTTSRQRHFDTYHRQYQHGSVSDTVFDSIPANPALLTYPRPGTSRSMGNLLEKENYLTAGLTVGQVRPLVPLQPVTQNRASRSSWHQSSFHSTRTLREAGPSVAVDSSGRRAHLTVGQAAAGGSGNLLTERSTFTDSQLGNAD

Results are given in words; binding and its absence hold for the method and conditions named. Binding seen in cells or lysates may run through a third protein. Binding can be weak; no strength is given. Tags and fused reporters may be left off the sequences shown.
